The values that follow come from paper PMC10956046.

No constants are given. Whether binding was seen depends on the method and setting. Binding seen in cells or lysates may run through a third protein. Binding calls can cover weak binding; strength is not graded here. Tags and fused reporters may be left off the sequences shown.

The target in this assay is T1, ZNF692-Flag (UniProt Q9BU19).
T1 sequence: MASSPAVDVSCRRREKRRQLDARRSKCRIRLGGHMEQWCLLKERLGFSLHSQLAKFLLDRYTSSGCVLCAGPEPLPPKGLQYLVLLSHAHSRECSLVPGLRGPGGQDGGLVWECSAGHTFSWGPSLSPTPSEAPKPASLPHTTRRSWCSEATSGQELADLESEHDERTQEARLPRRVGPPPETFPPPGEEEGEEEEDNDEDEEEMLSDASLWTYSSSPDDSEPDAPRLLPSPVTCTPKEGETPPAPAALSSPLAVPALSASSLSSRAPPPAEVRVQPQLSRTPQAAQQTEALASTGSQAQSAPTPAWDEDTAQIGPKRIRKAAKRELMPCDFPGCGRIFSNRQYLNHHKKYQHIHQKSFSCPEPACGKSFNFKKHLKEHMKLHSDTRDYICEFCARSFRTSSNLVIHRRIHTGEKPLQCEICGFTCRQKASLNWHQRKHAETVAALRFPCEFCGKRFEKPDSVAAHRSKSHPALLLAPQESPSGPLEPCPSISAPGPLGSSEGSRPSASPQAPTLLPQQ
Description: co-IP; ZNF692-Flag precipitated with DYKDDDDK Fab-trap beads (protein A/G agarose as negative control) from lysates of HCT116 ZNF692-Flag cells stably expressing GFP, NPM1-GFP or NPM1-GFP mutants.
In the case of NPM1-GFP ΔCt (domain or fragment), the binding entry is “binds”.
NPM1-GFP ΔNt (domain or fragment): the binding entry is recorded as “no binding”.
Take NPM1-GFP ΔNt-ΔCt (domain or fragment): the binding result is given as “no binding”.
